In PubChem BioAssay AID504467 (National Center for Advancing Translational Sciences (NCATS), 2011):
Hit rate of the full screen: of about 330,000 compounds, about 7,700 (2.3%) were called active. This list was built around the results that the source calls inconclusive (neither active nor inactive); the mix of calls is not that of the screen. Calls come from the whole dose curve; as a rule, active = well fitted inhibition curve with a large enough effect; inconclusive = small, poorly fitted or top-dose-only effect, or effect the other way; inactive = flat fitted curve, though single readings scatter. Potencies beside an inconclusive call are fits to weak or partial responses and may not hold up.

test: qHTS screen for small molecules that inhibit ELG1-dependent DNA repair in human embryonic kidney (HEK293T) cells expressing luciferase-tagged ELG1; conditions: HEK293T ELG1-luciferase reporter, luminescence, 16 h, DNA damage induced by 5-fluorouridine; series mostly up to 46.1 µM; note: nearly all actives have a fitted effect of over 55% in size
Method in brief: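 Step one: seed 2,000 cells per well. Step two: pin-transfer compound or DMSO alongside 5-fluorouridine. Step three: incubate 16 hr, 37 °C, 5% CO2. Step four: add ONE-Glo, wait 30 min, read luminescence.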
Potency is the fitted concentration of half-maximal effect.

SMILES	Potency
C=CCNC(=S)N1CCN(CCN=CC2=C(O)CC(c3cccs3)CC2=O)CC1 (configuration not stated)	inconclusive: 20.6 µM [activator, partial curve, poor fit]
COc1ccc(CNc2ccc(C)c(C)c2)cc1	inconclusive: 29.1 µM [activator, single point]
C=CC[C@@H](CC(=O)N(CCO)Cc1ccccc1)C(=O)N[C@H](COC(=O)[C@@H](CC=C)Cc1ccc(F)cc1)Cc1c[nH]c2ccccc12	active: 20.6 µM
O=C(Nc1ccc(SC(F)F)cc1)c1cc(-c2ccncc2)nc2ccccc12	inconclusive: 16.4 µM [inhibitor, single point]
CC(C)CCNC(=O)C1CCN(S(=O)(=O)c2ccc3c(c2)CCC(=O)N3)CC1	inactive
CCOC(=O)c1sc2nc(C)nc(NCCc3ccccn3)c2c1C	active: 20.6 µM
CCOC(=O)C1(CCc2ccccc2)CCN(C(=O)CCn2cnnn2)CC1	inconclusive: 29.1 µM [activator, single point]
CC(C)(C)OC(=O)N1CC=C2C(C#N)=C(N)C(C#N)(C#N)[C@H](c3cccnc3)[C@H]2C1	inconclusive: 25.9 µM [inhibitor, partial curve, poor fit]
CN(C(=O)CSc1ncnc2sccc12)C1CCCCC1	inconclusive: 16.4 µM [activator, partial curve]
O=[N+]([O-])c1ccc(OCCCCN2CCCCC2)cc1	inactive
Cc1cccc(NC(=S)NCCSc2ccc(Cl)cc2)c1	inactive
O=C(c1ccco1)N1CCn2cccc2C1c1ccccc1 (configuration not stated)	inconclusive: 20.6 µM [inhibitor, single point]
CN(CC(=O)Nc1ccccc1Cl)C(=O)c1ccc(N2CCCCCC2)c([N+](=O)[O-])c1	inconclusive: 29.1 µM [activator, single point]
Cc1ccc(/C=N/NC(=O)C(C)Oc2ccccc2[N+](=O)[O-])s1 (configuration not stated)	inconclusive: 18.4 µM [activator, partial curve, poor fit]
COc1cccc(CNC(C)C(=O)Nc2ccc(S(=O)(=O)N3CCCC3)cc2)c1 (configuration not stated)	inconclusive: 29.1 µM [inhibitor, single point]
O=C1C=C(c2ccc(OC(F)(F)F)cc2)C[C@@H](c2ccc(Cl)cc2)C1	inactive
Cc1nc(CNS(=O)(=O)c2ccc(Oc3ccccc3)cc2)cs1	inconclusive: 2.91 µM [inhibitor, single point]
Cc1ccc2sc(N(CCCN(C)C)C(=O)c3ccc(Br)s3)nc2c1C	inconclusive: 32.6 µM [inhibitor, partial curve, poor fit]
CC(C)Nc1nc(Cl)nc(N(C#N)CN2C(=O)c3ccccc3C2=O)n1	inconclusive: 29.1 µM [inhibitor, single point]
Cc1ccc(-c2c[n+](CC(=O)c3ccc(Br)cc3)c3n2CCCCC3)cc1	inconclusive: 16.4 µM [inhibitor, single point]
Cc1ccc(Nc2nc(N)nc(CSc3nc4ccccc4s3)n2)cc1	inconclusive: 35.5 µM [inhibitor, single point]
Cc1ccc(C(=O)N/N=C\c2ccc[nH]2)cc1[N+](=O)[O-]	inactive
CCOC(=O)C1=NN(c2cccc(Cl)c2)C2=NC(C)=C(C(=O)OC)C(c3cccs3)N12 (configuration not stated)	active: 20.6 µM

Shown field by field: 3 of the compounds above
C=CCNC(=S)N1CCN(CCN=CC2=C(O)CC(c3cccs3)CC2=O)CC1 (configuration not stated)
  Potency: inconclusive: 20.6 µM [activator, partial curve, poor fit]
COc1ccc(CNc2ccc(C)c(C)c2)cc1
  Potency: inconclusive: 29.1 µM [activator, single point]
C=CC[C@@H](CC(=O)N(CCO)Cc1ccccc1)C(=O)N[C@H](COC(=O)[C@@H](CC=C)Cc1ccc(F)cc1)Cc1c[nH]c2ccccc12
  Potency: active: 20.6 µM

Continuation.

SMILES	Potency
Cc1cc(NS(=O)(=O)c2ccc(NC(=O)/C=C/c3ccccc3)cc2)no1	inactive
COC(=O)Cn1cnc(C(=O)Nc2ccc(C)c(C)c2)n1	inconclusive: 16.4 µM [activator, partial curve, poor fit]
N#Cc1c2c(c(-c3ccccc3Cl)[nH]c1=S)CCCC2	inconclusive: 20.6 µM [activator, partial curve, poor fit]
CCOC(=O)c1ccc2ncc(C(=O)OCC)c(Nc3ccc(N4CCOCC4)cc3)c2c1	active: 10.3 µM
COc1ccc(C2C(C(=O)c3ccccc3)=C(C)Nc3nc4ccccc4n32)c(OC)c1 (configuration not stated)	inconclusive: 16.4 µM [activator, single point]
COc1ccc(OC)c(N(CC(=O)Nc2ccc3c(c2)OCO3)S(=O)(=O)c2ccccc2)c1	inconclusive: 18.4 µM [inhibitor, partial curve]
COc1ccc(CCNC(=O)c2ccccc2NC(=O)C2=C(C)OCCS2)cc1OC	inconclusive: 8.2 µM [inhibitor, partial curve, poor fit]
Cc1nnc(SCC(=O)N2N=C(c3ccc(Cl)cc3)CC2c2ccco2)[nH]c1=O (configuration not stated)	inconclusive: 29.1 µM [activator, single point]
CCSc1nnc(NC(=O)CSc2nnc(CNC(=O)c3cc(OC)c(OC)c(OC)c3)o2)s1	inactive
COc1ccc(CN2CCc3ccc(NC(=O)c4ccncc4)cc3C2)c(F)c1	inconclusive: 23.1 µM [inhibitor, single point]
Cc1cc(C)cc(NC(=O)CSc2ccc(-c3cccs3)nn2)c1	inconclusive: 20.6 µM [inhibitor, partial curve]
CCN(C(=O)c1cc2c(=O)[nH]c3ccc(C)cc3c2s1)c1ccccc1F	inactive
CN(C)c1cccc(C(=O)NNC(=O)C23CC4CC(CC(C4)C2)C3)c1	inconclusive: 14.6 µM [activator, partial curve]
O=C(NCCCc1ccccc1)c1ccc(CS(=O)Cc2ccccc2Cl)o1 (configuration not stated)	inconclusive: 32.6 µM [inhibitor, partial curve, poor fit]
CC1CCN(CCCn2c(=S)[nH]c3ccccc3c2=O)CC1	inactive
Cc1ccc(S(=O)(=O)N2CCCC(C(=O)NCCc3ccc4c(c3)OCO4)C2)cc1 (configuration not stated)	inconclusive: 23.1 µM [inhibitor, partial curve, poor fit]
CS(=O)(=O)N(CCc1ccccc1)CC(=O)N1CCN(c2ccc(F)cc2)CC1	inconclusive: 23.1 µM [inhibitor, partial curve]
S=C(NCC1CCCO1)Nc1cc(Cl)c(Cl)cc1Cl (configuration not stated)	inactive
Cc1ccc(N2C(=O)C3C(C2=O)C2C=CC3C23CC3)cc1 (configuration not stated)	inconclusive: 14.6 µM [activator, partial curve, poor fit]
CN1CCC(=NOc2ccc([N+](=O)[O-])cc2)CC1	inconclusive: 18.3 µM [activator, partial curve]
O=C(Cc1ccccc1)N/N=C/c1cc(Br)cc(Br)c1O	active: 6.51 µM
O=C(NCCN1CCN(C(=O)c2cccs2)CC1)C(=O)Nc1ccc(Br)cc1	inconclusive: 23.1 µM [inhibitor, partial curve]
Cc1ccc(CNC(=O)CO/N=C/c2ccc(C(C)(C)C)cc2)cc1	inactive

SMILES	Potency
CCOc1ccc2nc(NC(=O)C34CC5CC(CC(NC(C)=O)(C5)C3)C4)sc2c1	inactive
COC(=O)c1ccc(/C=C/C(=O)c2ccc(OC)c(OC)c2)cc1	inconclusive: 23.1 µM [activator, single point]
CC(C)CNC(=O)COC(=O)CNC(=O)c1cc(Cl)cc([N+](=O)[O-])c1	inconclusive: 20.6 µM [activator, partial curve, poor fit]
O=C(CNC(=O)c1ccccc1F)c1ccccc1	inconclusive: 2.06 µM [activator, full curve]
CCOc1cc(/C=C(/C#N)C(=O)Nc2ccc(O)cc2)cc(Br)c1O	inactive
O=C(c1cn(-c2ccccc2)nc1-c1cccs1)N1CCN(c2ccc(F)cc2)CC1	inconclusive: 29.1 µM [inhibitor, single point]
CCOc1cc(N2CCOCC2)c(OCC)cc1NC(=O)COC(=O)c1cc(C)cc(C)c1	inconclusive: 18.4 µM [inhibitor, partial curve]
Cc1cc(-c2ccccc2)nc2oc(C(=O)NN)c(N)c12	inactive
COc1ccc(NC(=O)CSc2nnnn2C)cc1	inconclusive: 0.0058 µM [activator, full curve, poor fit]
CCc1ccc(OCC(=O)Nc2ncn[nH]2)cc1	inconclusive: 20.6 µM [activator, partial curve]
CN(C)C1=NC(=O)/C(=C\c2ccccc2)S1	inconclusive: 25.9 µM [activator, single point]
CNc1cc(C)nc(N2CCOCC2)n1	inactive
O=C(C1CCC1)N1CCc2cc(S(=O)(=O)NC3CCCc4ccccc43)ccc21 (configuration not stated)	inconclusive: 20.6 µM [inhibitor, single point]
Cc1cc(N2CCN(S(=O)(=O)c3ccc(C)c(C)c3)CC2)c2ccccc2n1	inconclusive: 25.9 µM [inhibitor, single point]
N#Cc1ccc(-c2nc3ccccc3nc2-c2ccccc2)cc1C#N	active: 16.4 µM
Fc1ccc(CSc2ccc3nnc(-c4cccnc4)n3n2)cc1	inactive
Cc1ccc2oc(=O)c3cnn(CC(=O)NC4CCN(Cc5ccccc5)CC4)c3c2c1	inconclusive: 0.0046 µM [activator, full curve, poor fit]
CN(c1ccc(C(=O)N2CCN(Cc3ccccc3)CC2)cc1)S(=O)(=O)c1ccccc1	inconclusive: 16.4 µM [inhibitor, single point]
Cc1cccc(C)c1NC(=O)CN(C)C(=O)c1ccc(COc2ccccc2)cc1	inconclusive: 16.4 µM [activator, single point]
Cc1ccc2c(Cl)cc(Cl)c(OCC(=O)Nc3cccc(S(=O)(=O)N(C)C)c3)c2n1	inactive
COc1cc(C(=S)N2CCOCC2)cc(OC)c1OC(=O)c1ccccc1[N+](=O)[O-]	inconclusive: 8.2 µM [inhibitor, partial curve, poor fit]
